Laboratory results taken from paper PMC11757143, “Generation and characterization of OX40-ligand fusion protein that agonizes OX40 on T-Lymphocytes” (Frontiers in Immunology, 2025).
These are yes or no findings as the source states them, for the method shown. Some binding calls cover weakened binding; strength is not graded here. For part of these data: Tags and fused reporters may be left off the sequences shown.

Sequences of proteins named here, by UniProt entry; tags and fusion partners are left off. A change or cut given only in a name is not applied to a line headed by its entry.
UniProt P39039: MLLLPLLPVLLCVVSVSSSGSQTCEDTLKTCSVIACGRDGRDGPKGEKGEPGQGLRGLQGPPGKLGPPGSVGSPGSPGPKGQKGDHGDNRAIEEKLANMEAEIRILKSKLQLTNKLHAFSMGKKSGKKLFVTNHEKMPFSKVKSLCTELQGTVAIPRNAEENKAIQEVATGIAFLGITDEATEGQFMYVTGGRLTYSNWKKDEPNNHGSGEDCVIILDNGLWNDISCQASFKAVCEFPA

How the values were obtained:
[1] = molecular target: T1, cell surface OX40 expressed by the T cell hybridoma (UniProt P47741); test: flow cytometry on cells; OX40+ T cell hybridoma incubated with the OX40L proteins (3 or 0.3 µg/mL), then anti-PA tag antibody and anti-rat IgG2a-FITC; only the binder purified
T1 sequence: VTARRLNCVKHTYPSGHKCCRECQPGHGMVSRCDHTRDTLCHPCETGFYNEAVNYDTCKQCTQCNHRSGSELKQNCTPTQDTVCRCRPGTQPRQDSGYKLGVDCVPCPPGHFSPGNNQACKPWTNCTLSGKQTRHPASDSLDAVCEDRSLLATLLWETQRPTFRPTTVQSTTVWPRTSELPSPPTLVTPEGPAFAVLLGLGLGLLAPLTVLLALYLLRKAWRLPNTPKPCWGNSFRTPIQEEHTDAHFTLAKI

mouse Ox40-Fc (mouse) = molecular target: T2, mouse Ox40-Fc (mouse) (UniProt P47741); test: ELISA; plates pre-coated with 0.4 µg/mL OX40-Fc; purified OX40L proteins serially diluted and added; detected with anti-PA tag rat IgG (NZ-1) and anti-rat IgG-HRP; both purified
T2 sequence: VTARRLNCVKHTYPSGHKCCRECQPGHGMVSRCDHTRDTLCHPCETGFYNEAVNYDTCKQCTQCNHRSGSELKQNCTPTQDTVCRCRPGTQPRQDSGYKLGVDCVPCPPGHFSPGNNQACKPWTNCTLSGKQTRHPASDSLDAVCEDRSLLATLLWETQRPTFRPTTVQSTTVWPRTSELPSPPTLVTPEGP

binding [1] | binding (mouse Ox40-Fc (mouse)) | Substance
binds | binds | Fc-MBL-OX40L (from UniProt P39039 18-126; P43488 51-198) (Fc fusion)
binds | binds | MBL-OX40L (from UniProt P39039 18-126; P43488 51-198) (ligand)
binds | binds | MBL-scOX40L (from UniProt P39039 18-126; P43488 51-198; P43488 51-198; P43488 51-198) (ligand)
